For two substances, binding results are on record in publication PMC4008574 (PLoS ONE, 2014).

Chains of the proteins cited; added tags and fusions are not shown. Lines headed by an entry give the natural chain unless they say otherwise; changes in a name come on top. Residues count along the entry.
UniProt Q13444, residues 421-508: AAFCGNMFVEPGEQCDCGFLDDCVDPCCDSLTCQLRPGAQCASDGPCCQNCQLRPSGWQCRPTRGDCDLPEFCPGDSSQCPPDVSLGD
UniProt P06756: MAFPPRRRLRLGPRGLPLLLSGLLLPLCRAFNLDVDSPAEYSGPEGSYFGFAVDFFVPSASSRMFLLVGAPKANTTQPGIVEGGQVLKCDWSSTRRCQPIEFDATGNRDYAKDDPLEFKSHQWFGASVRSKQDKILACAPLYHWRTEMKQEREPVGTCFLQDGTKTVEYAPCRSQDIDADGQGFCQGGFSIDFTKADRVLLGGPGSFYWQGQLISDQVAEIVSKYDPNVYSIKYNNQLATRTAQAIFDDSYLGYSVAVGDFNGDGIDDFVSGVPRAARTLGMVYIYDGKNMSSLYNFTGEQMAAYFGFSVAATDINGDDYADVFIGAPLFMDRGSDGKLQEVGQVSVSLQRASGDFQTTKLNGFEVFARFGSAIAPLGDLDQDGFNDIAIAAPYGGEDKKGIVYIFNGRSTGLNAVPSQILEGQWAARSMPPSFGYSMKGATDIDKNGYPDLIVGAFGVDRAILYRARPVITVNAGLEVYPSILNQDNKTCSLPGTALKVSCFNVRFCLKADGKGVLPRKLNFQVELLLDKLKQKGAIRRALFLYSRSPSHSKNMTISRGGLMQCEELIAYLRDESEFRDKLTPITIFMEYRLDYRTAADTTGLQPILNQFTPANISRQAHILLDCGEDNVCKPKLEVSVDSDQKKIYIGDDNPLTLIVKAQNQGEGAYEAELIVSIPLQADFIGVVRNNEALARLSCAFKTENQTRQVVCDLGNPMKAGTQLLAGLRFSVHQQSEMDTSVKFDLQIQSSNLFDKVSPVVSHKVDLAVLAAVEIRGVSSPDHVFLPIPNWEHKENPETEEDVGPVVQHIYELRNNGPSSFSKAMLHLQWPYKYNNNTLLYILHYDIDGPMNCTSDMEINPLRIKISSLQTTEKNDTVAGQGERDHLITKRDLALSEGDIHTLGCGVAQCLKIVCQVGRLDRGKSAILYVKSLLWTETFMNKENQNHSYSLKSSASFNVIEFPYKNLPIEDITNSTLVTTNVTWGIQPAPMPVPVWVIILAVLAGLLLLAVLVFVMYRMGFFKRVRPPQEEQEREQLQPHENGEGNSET

These are yes or no findings as the source states them, for the method shown. Some entries that bind do so weakly or less than the wild type.

Assay [1] has as its target disintegrin domain of ADAM-15 (GST fusion protein) (UniProt Q13444). Put plainly: cell adhesion assay; FN8-11, ADAM-15 or VCAM-1 coated on wells; K562, αvβ3-K562 or α4-K562 cells in RPMI 1640 added, 1 h at 37°C, with or without FKN-CD; bound cells quantified by endogenous phosphatase activity; only the target purified.
Assay [2] has the same target. Put plainly: ELISA; γC399tr or ADAM-15 coated on wells; soluble αvβ3 (5 µg/ml) added with or without FKN-CD (WT or K36E/R37E) in HEPES-Tyrodes buffer with 1 mM CaCl2, 2 h at room temperature; bound αvβ3 detected with anti-β3 mAb AV-10; both purified.

With “human integrin αvβ3 on K562 cells (αvβ3-K562) (from UniProt P06756 31-1048; P05106 27-788) (receptor)”, the binding result in assay [1] is “binds”.

Consider “recombinant soluble integrin αvβ3 (from UniProt P06756 31-987; P05106 27-718) (receptor)”, for which, in assay [2], the binding entry is “binds”.
